## Library screening results

Measurements from “University of Dundee, Small-Polar-MMV Screening Library” (2021), ChEMBL document CHEMBL3988442.

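Whole-cell assay for inhibitors of Mycobacterium tuberculosis growth, labelled Cornell in the record; the read-out is not stated. The concentration is filed as 10 mM, unlikely as a test dose, so the dose is not known. The record gives no direction; compounds strong in two other growth screens of this library score well above the rest, so higher reads as stronger inhibition. Of about 53,000 compounds tested this way, about 900 (1.7%) reached 50% or more in at least one test.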

The filed quantity is “Percent Effect” (%).
The record does not define 0% and 100%; most values in the screen are far below 50% and negative numbers occur (in some assays of this library far below -100).
This is an unselected part of the compounds tested.

Compound	effect
CCn1nccc1CNC(=O)CCC1CCCC1	1.308
COc1cccc(-c2noc(-c3ccc(NCC4CC4)nc3)n2)c1OC	18.75
O=C(NC1(c2nnn(Cc3ccncc3)n2)CCCC1)c1ccccc1	21.24
CC(C)N1CCC(c2ccnc3c(C(=O)N4CCOCC4)ncn23)CC1	26.26
O=C(O)C(F)(F)F.O=C(O)C(F)(F)F.[H][C@@]12CCN(Cc3cccc(C)n3)[C@@]1([H])CCN2Cc1cccs1	1.065
COC(=O)C(NC(=O)COC1CCCCC1)c1ccccc1 (stereo not drawn)	43.33
COc1cc(Oc2ccc(C(F)(F)F)cn2)ccc1CN1CCCC1	21.65
COc1ccc2oc(C(C)NC(=O)NCC(C)(C)C(N)=O)c(C)c2c1 (stereo not drawn)	-18.71
CN1CCc2nc(C3CCCCN3Cc3ccccc3Cl)ncc2C1 (stereo not drawn)	-14.03
CCC1CCCN(C(=O)NCc2cccnc2-n2cccn2)C1 (stereo not drawn)	11.73
CNC(=O)CCCNCc1c(C)nn(C)c1N(C)C	7.492
CNS(=O)(=O)c1ccc(CNC(=O)NCC2CCC2)cc1	19.73
O=C(O)C(F)(F)F.[H][C@]12CCC[C@@]1(COCC(=O)N(C)C)CN(C1CCCC1)C2	33.48
CSc1ccc(CN2CCn3nc(CNC(C)=O)cc3C2)cc1	6.619
Cc1ccc(C(NCC(=O)N2CCNC(=O)C2)c2ccccc2)cc1 (stereo not drawn)	14.86
Cn1nc(CN2CCCC2)c2c1CN(C(=O)c1cccnc1)CC2.O=C(O)C(F)(F)F.O=C(O)C(F)(F)F	10.4
[H][C@@]12CS(=O)(=O)C[C@]1([H])N(Cc1nc3ccccc3[nH]1)CCN2C	-2.36
[H][C@@]12C[C@H](C(=O)NCc3ccco3)CN(C(=O)N(C)C)[C@]1([H])CCO2	-2.541
COc1cccc(C2(NC(=O)CCNC(C)=O)CC2)c1	-2.183
CCn1cnnc1C1CCN(C(=O)c2cc(F)ccc2OC)CC1	-64.8
Cc1nn(C)c(C)c1NC(=O)CN1CCOC(CN(C)C)C1 (stereo not drawn)	13.8
N#Cc1ccc(N2CCC3(CCCN(c4ccccn4)C3)C2)nc1.O=C(O)C(F)(F)F (stereo not drawn)	4.183
CC(C)c1nn(C)c(N2CCOCC2)c1CNC(C)c1ccco1 (stereo not drawn)	13.8
CCOCCn1c(=O)n(Cc2ccc(F)cc2)c2ncc(C(=O)O)cc21	11.45
CCc1noc(CN2CCN(CC(O)c3ccccc3)CC2)n1 (stereo not drawn)	-1.918
Cc1nn(C)c(N2CCOCC2)c1CNC(C)c1ccco1 (stereo not drawn)	-2.459
CS(=O)(=O)N1CCc2ccc(=O)n(CC3CC3)c2CC1	-31.56
CCc1ccc(CN(C)c2ccc(-c3nc(COC)no3)cn2)nc1	17.55
Oc1nc(N2CCOCC2)nc2c1CCN(Cc1ccc(F)cc1)CC2	-37.45
Cc1nocc1C(=O)N1CCc2c(CN(C)C(C)C)n[nH]c2C1	19.61
COCC(=O)NCc1cc(=O)n2c(n1)CN(Cc1ccco1)CCC2	-46.96
O=C1CN(c2ccc(CNC(=O)NCC3CCOC3)cc2)CCN1 (stereo not drawn)	-1.424
Cn1c(N2CCOCC2)nc2cc(C(=O)N3CCC(O)(CO)C3)ccc21 (stereo not drawn)	13.97
N#CCCCn1nnnc1Cc1ccc(Br)cc1	19.45
O=C(O)C(F)(F)F.O=C(O)C(F)(F)F.[H][C@@]12CC(=O)N(c3cccnc3)[C@@]1([H])CCN2Cc1ccc(C)o1	-56.98
CCn1cc(NC(=O)N2CCN(C(=O)Oc3ccccc3)CC2)cn1	3.688
COCC1CN(C(=O)Nc2cc(C(F)(F)F)ccc2F)CCO1 (stereo not drawn)	-3.713
CCC(=O)N1CCN(Cc2cc(-c3ccncc3)nn2C)CC1	-7.966
Fc1ccc(Sc2ccccc2CNC2=NCCN2)cc1.I	18.51
COCC(=O)Nc1ccc(N2CCC(OC)CC2)c(C(F)(F)F)c1	-14.63
CCO[C@@H]1CCN(C(=O)c2ccc[nH]2)[C@@H]1Cc1cccnc1.O=C(O)C(F)(F)F	19.21
COC(=O)CC1CCCCN1CC(=O)Nc1ccc(F)cc1Cl (stereo not drawn)	-9.459
O=C(c1ccco1)N1CCCC2(CCN(CCN3CCCC3)C2=O)C1 (stereo not drawn)	10.54
[H][C@@]12CCN(S(=O)(=O)N(C)C)C[C@@]1([H])O[C@@H](c1ccnc(C)n1)C2	-1.151
Cc1ncnc2c1CCN(C(=O)c1cccn1C)CC2	30.93
CN(CCC(=O)NC1CC1)Cc1ccc(Cl)s1	4.71
Cc1cnc(C(=O)N(CCN(C)C)Cc2ccc(Cl)cc2)cn1	-4.772
CC(C)[C@H]1CN(c2ccncc2)C[C@@H]1NS(=O)(=O)N(C)C	20.29
CN(CC(=O)NCc1ccccn1)CC1CCCN1c1cccnn1 (stereo not drawn)	18.62
[H][C@]12CCN(c3cc(OC)ncn3)[C@@]1([H])C[C@H](C(=O)NC(C)C)O2	-0.09287
O=C(NCCSC1CCCC1)c1c(F)cccc1F	21.6
Cc1csc2c(=O)n3c(nc12)CCN(C(=O)c1cccnc1)CC3	18.85
Cc1nn(C)c(N(C)C)c1CNCc1ccccc1Cn1cccn1	-22.4
Cn1ccc(C(=O)NCCOc2ccc3c(c2)OCO3)cc1=O	19.87
Cc1nc(C)n(CC2CCCCN2CCCS(N)(=O)=O)n1 (stereo not drawn)	3.334
Cc1cccc(S(=O)(=O)N2CCC3(CC2)CC(N(C)C)CO3)c1 (stereo not drawn)	1.557